Assay results taken from PubChem BioAssay AID1508600 (Functional Genomics Laboratory (NCATS/FGL), 2020).
Out of some 53,000 sequences screened, about 3,700 (7%) were called active.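 How the source made its calls: active means gene knockdowns whose robust z-score for IL-1 alpha signal is at least 2 or at most -2, so actives lie on both sides; inactive means the rest.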 Some of the results follow.

assay: Components of the Cytosolic LPS Sensing Pathway: Gene Identification via Genome-wide siRNA Screen; conditions: RAW264.7 macrophages, IL-1a HTRF, actives lie on both sides, screened at 100 nM (by protocol), cells primed 5 h with Pam3CSK4 first;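 further: robust z of the log signal after scaling to non-targeting control siRNA wells of the plate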
Method in brief: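 Supernatant IL-1a by HTRF from RAW264.7 cells primed with Pam3CSK4 (5 hours) and transfected with LipidA (24 hour) after 48h siRNA knockdown at 100 nM; cell viability checked with CellTiter-Glo.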

| Sequence | z-score |
| --- | --- |
| GGGCAGGUCUUCUUCCUCATT against Hoxd4 | inactive: -0.549 |
| GGACUAUUUGCUGAUGGACTT against Trpc6 | active: 2.74 |
| CCUGGCUGUAAUCACCAUCTT against Olfr1160 | inactive: 0.953 |
| GGAACACUGUAUCUUACGGTT against Mtmr6 | inactive: 0.599 |
| GGAAAUCCUUAAAUCUGUCTT against Gk2 | inactive: -0.49 |
| GGAACUCAAACAUGAGCGGTT against Atp5j2 | inactive: 0.649 |
| GGGUCAGACAUUAAUGUGATT against Traf1 | inactive: -0.173 |
| GGAGCUUGCUGGAUUCAUATT against Ccdc126 | inactive: -1.81 |
| GGCUUCCUGGCUCAUCCAATT against Etv1 | inactive: 0.479 |
| CCACUUCAUGAUUGAGUGCTT against Phf8-ps | inactive: -0.836 |
| GGAAUUGAUAUUUUGGUGATT against Hsdl2 | inactive: -0.177 |
| GGAGAUCCGAGUGAGGAAUTT against Eif3b | active: 2.91 |
| GCCUGAUUGACUUAGAGUCTT against Eps8 | inactive: 0.821 |
| GCAUCCAUCUCCAUCAUGGTT against Olfr988 | inactive: -1.63 |
| GGCCCUUUAAAAAUAAAGCTT against Ppp1r14b | inactive: -1.17 |
| GGACACCCUUAUAUUUGUCTT against Olfr1216 | inactive: 1.2 |
| CCUCAUGCCUCAUUUCAAATT against Arhgef6 | inactive: -0.603 |
| GGCAUCUCUGAGUUACAUUTT against Snu13 | inactive: 0.695 |
| AGGAAAACGCAUAGCUUAUTT against Platr28 | inactive: 0.372 |
| GCACCUAAGUAAGAUUUGATT against Txlnb | inactive: -0.93 |
| GCCCUUAUUCCAGUCAGUUTT against Cgnl1 | inactive: 0.325 |
| CCGGCCUAUCAGAGAUUGCTT against 2200002J24Rik | inactive: -0.118 |
| GGCCUUAACUACUCUGAAGTT against Pld5 | inactive: -1.36 |

Taken from above:
Under z-score, GGAACUCAAACAUGAGCGGTT against Atp5j2 reads inactive: 0.649
Under z-score, GCAUCCAUCUCCAUCAUGGTT against Olfr988 reads inactive: -1.63

The listing continues:

| Sequence | z-score |
| --- | --- |
| CGGUCUUCCUACUUUUGGUTT against Qars | inactive: 0.523 |
| GGAGAUCCCUAUUAUAAAGTT against Ankfy1 | inactive: 1.06 |
| GCCUUCGAGCUACGAUUAATT against Slc27a5 | inactive: 0.57 |
| GCAGAAGUACGAAGGAGAATT against Abcd3 | inactive: -1.02 |
| CCCACAUUAAAUGAAUAGGTT against Traf4 | inactive: -0.832 |
| GGCUCAGAUUGAUAGGAUATT against Gmfg | inactive: 0.103 |
| CCUGAGCCUGGUCUUAUGUTT against Olfr1423 | inactive: -0.321 |
| AUACUGGCUACAGUUUUUGTT against Olfr834 | inactive: 1.75 |
| GCUCUGUUGUGGAUGCAAUTT against Lonrf2 | inactive: 0.859 |
| CCUCGUAAGCGUGUGGAUUTT against Brsk1 | inactive: 0.225 |
| GGCAUUCAUGGAGACUGUGTT against Zfpl1 | inactive: -0.467 |
| GGUCAAUGUGAUUGAGGAUTT against Acap1 | inactive: 0.869 |
| GCAGCACAGAAAUGUUUCCTT against Tas2r106 | inactive: 0.918 |
| GGUAGAACCCAUGACAGCUTT against Uba7 | inactive: -0.442 |
| CCAUUUUUCAGAUUGUGAUTT against Tnfaip8 | inactive: -0.822 |
| GGAGGACCUGAAGCUUCAGTT against Retsat | inactive: 0.755 |
| GCUGCACUAAAAAUCAAUUTT against Sall1 | inactive: -1.22 |
| GGUGGUCUCUGGCCUUUAUTT against Ccr8 | inactive: 0.125 |
| CCUAUCUCUUAGCAAAGAUTT against 2010003K11Rik | active: 2.87 |
| CCAUGACCUAGACUCUACATT against Pxdn | inactive: -0.238 |
| GCCAGUAGUAGUAGAAUAATT against Gm4841 | inactive: 0.997 |
| GGAAACUUUACUUUCAUGGTT against Kcnu1 | inactive: -0.305 |
| GCAGAAAGCAUACGGAGGCTT against Nfatc2ip | inactive: 0.0321 |

| Sequence | z-score |
| --- | --- |
| GGAGAUGGCAAUUCCGGUUTT against Aldh18a1 | inactive: 1.42 |
| GGCAGAAGCCGUUAGAGAUTT against Cep295nl | inactive: 0.35 |
| GGCAUUCCUCGGAAGUCAATT against Smad7 | inactive: -0.372 |
| GGAGCAGAGGCUACAAAGATT against Prc1 | inactive: -0.318 |
| GCAAAGAAGUUGGGAUAUCTT against Rad51c | inactive: -1.27 |
| GGCAAUUAUUCGUGUCUUATT against 4930449I24Rik | inactive: -1.26 |
| GGACAAUGUAUGGAUCCCATT against Pilra | inactive: -0.842 |
| CCAUACGAACAGACAUUUUTT against Tcn2 | inactive: -0.29 |
| GGGUCCAUGACAAUUCACATT against Rhbg | inactive: -0.592 |
| GCUGGUUUACCAAAACAUATT against Gna14 | inactive: 0.698 |
| GGAGUGAUCAUCUAUAAUUTT against Rnf133 | active: 2.12 |
| GGUCGAGAGAAACGGAACUTT against Lrrc3 | inactive: 0.0776 |
| GGAAGGAAGUGGAAAUGAGTT against Tbc1d9b | inactive: 0.806 |
| GGCAUUUUUCAUCGAGUCGTT against Pfkfb3 | inactive: -1.67 |
| CCACACUUGCUGAAUACAGTT against Gm9734 | inactive: 0.139 |
| GGGUAAUUGACUGAGCUCUTT against Cyb5d2 | inactive: -0.53 |
| GGCUCAAGAAGAAGAAUGCTT against P2ry1 | inactive: 0.556 |
| CCAAAACGUGCAACACAAUTT against Cops6 | inactive: 0.37 |
| GGUGCAUCACCAGAACUCGTT against Ch25h | inactive: -0.787 |
| GGGUGAAUUUGAUUCGCUGTT against Prr15l | inactive: 0.753 |
| GGAUGGAAUCAUUUGUAGCTT against Apba3 | inactive: 1.76 |
| GGCUGCUCAUACGAUUAAUTT against Nek11 | inactive: -0.0645 |

Part of the list above in a different format:
GGGCAGGUCUUCUUCCUCATT against Hoxd4
  z-score: inactive: -0.549
GGACUAUUUGCUGAUGGACTT against Trpc6
  z-score: active: 2.74
GCCCUUAUUCCAGUCAGUUTT against Cgnl1
  z-score: inactive: 0.325
GGUCAAUGUGAUUGAGGAUTT against Acap1
  z-score: inactive: 0.869
